For part of these data: Shown are results outside the selection of hits, which stands elsewhere. Inconclusive results are not listed. Only a part is listed here, and it is no random draw. Active and inactive are the calls of the source. Unless noted, calls come from the whole dose curve.
Key:
[1] = biological target: Estrogen receptor (Homo sapiens) (UniProt P03372); assay: qHTS assay for small molecule antagonists of estrogen receptor alpha signaling (AID 588513; active = well fitted curve in the direction sought with a large enough effect in the signal ratio, with a control signal flat, not every such curve was filed as active; the % refers to the signal ratio; note: % is set by controls: 0 for no effect and ±100 for the full control effect); conditions: ER-alpha-UAS-bla HEK293, beta-lactamase ratio, antagonist mode; at 76.9 µM (top of the series)
Summary of the method: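 Fluorescence from CCF4 substrate after 2 h at room temperature gave reporter activity; cells had been exposed to compound and 0.5nM 17-beta-estradiol for 18 h at 37 C. Hill-equation fitting yielded IC50 and maximal response.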

Sequences of proteins named here, by UniProt entry; tags and fusion partners are left off. A change or cut given only in a name is not applied to a line headed by its entry.
UniProt P03372, whole entry, looked up: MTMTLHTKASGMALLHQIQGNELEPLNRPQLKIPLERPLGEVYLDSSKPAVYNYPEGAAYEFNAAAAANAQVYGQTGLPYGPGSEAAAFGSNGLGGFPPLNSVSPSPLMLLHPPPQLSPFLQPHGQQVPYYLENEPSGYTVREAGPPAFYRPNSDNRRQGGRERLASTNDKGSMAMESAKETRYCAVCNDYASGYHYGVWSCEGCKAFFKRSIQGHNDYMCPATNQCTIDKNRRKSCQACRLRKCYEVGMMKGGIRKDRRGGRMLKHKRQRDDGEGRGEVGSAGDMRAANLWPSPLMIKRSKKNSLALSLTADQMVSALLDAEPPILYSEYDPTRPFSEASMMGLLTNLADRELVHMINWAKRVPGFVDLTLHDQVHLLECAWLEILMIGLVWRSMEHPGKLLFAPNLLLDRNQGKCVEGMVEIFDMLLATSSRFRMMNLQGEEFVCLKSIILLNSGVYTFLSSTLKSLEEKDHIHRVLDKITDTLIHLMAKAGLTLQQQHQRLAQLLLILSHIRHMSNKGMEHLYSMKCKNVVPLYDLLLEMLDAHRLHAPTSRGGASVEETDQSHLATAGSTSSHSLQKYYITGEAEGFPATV
UniProt Q03181: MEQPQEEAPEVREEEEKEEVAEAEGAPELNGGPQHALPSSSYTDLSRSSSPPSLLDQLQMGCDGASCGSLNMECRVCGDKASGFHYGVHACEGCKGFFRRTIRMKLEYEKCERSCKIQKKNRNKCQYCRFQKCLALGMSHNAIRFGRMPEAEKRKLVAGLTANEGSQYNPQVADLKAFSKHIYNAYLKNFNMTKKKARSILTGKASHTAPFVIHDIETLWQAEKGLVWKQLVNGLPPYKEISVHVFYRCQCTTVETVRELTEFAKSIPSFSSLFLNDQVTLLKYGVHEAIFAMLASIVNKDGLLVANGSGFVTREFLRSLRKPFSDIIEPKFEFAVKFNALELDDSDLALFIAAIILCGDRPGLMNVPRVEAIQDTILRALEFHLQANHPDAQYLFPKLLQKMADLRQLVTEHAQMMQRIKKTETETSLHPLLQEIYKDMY
UniProt P19793: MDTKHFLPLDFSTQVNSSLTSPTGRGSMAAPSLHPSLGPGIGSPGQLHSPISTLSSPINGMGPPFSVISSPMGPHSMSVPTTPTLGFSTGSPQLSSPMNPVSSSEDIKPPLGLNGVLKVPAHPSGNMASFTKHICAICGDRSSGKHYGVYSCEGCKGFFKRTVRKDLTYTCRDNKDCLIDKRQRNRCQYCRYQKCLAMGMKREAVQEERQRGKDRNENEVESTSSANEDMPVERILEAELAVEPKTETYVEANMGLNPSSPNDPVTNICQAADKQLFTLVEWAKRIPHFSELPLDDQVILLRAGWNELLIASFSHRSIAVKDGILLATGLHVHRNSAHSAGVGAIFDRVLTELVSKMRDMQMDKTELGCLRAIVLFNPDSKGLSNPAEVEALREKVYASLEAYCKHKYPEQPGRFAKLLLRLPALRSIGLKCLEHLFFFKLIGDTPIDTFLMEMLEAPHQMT
UniProt P10828: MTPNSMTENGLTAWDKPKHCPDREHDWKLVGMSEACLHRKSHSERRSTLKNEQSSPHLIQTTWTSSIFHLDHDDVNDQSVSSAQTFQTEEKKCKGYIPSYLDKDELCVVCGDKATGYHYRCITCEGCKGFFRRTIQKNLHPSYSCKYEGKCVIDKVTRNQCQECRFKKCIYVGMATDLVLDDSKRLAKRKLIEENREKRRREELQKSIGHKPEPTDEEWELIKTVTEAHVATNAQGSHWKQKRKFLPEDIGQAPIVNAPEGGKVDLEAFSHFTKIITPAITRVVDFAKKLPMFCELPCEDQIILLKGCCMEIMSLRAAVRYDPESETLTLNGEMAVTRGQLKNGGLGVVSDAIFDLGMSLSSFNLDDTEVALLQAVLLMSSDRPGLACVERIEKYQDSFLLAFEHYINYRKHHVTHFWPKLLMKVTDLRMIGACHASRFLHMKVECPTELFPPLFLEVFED
UniProt Q07869: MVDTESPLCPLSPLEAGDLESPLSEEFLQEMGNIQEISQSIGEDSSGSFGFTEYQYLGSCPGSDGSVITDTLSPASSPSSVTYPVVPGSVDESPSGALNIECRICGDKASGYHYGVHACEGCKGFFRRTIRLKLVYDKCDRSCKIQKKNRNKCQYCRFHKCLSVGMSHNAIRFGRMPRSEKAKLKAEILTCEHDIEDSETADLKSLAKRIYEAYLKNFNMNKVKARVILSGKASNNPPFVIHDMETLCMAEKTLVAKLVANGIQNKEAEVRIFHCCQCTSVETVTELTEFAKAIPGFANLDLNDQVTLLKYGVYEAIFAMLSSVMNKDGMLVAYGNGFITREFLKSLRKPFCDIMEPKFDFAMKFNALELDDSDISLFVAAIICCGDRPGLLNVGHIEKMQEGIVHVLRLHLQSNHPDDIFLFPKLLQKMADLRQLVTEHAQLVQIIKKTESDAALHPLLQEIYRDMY

[2] = biological target: Estrogen receptor (Homo sapiens) (UniProt P03372); assay: qHTS assay for small molecule agonists of estrogen receptor alpha signaling (AID 588514); conditions: ER-alpha-UAS-bla HEK293, beta-lactamase ratio, 18 h, percent of full estradiol response, vehicle zero; at 76.8 µM (top of the series);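 note: 0% = vehicle only and 100% = reference agonist; nearly all actives have a fitted effect of over 70% in size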
Summary of the method: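 ER-alpha-UAS-bla GripTite HEK293 cells, 5000/well in 2% charcoal/dextran-stripped FBS medium, treated with compound titrations 18 h at 37 C. CCF4 beta-lactamase read by fluorescence after 2 h RT; normalised to 20 nM 17-beta-estradiol (100%) and DMSO (0%), Hill fit for EC50 and efficacy.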

[3] = biological target: Bile acid receptor (Homo sapiens) (UniProt Q96RI1); assay: qHTS assay for small molecule antagonists of farnesoid X receptor signaling (AID 588526); conditions: HEK293T FXR-UAS-bla, beta-lactamase ratio, antagonist mode; at 76.7 µM (top of the series); note: % is set by controls: 0 for no effect and ±100 for the full control effect
Summary of the method: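 Antagonist mode: titrated compounds tested against chenodeoxycholic acid stimulation (normalized to 50 uM CDCA and DMSO) in GeneBLAzer HEK293T cells for 16 h. Beta-lactamase read by CCF4 fluorescence; IC50 from Hill fits.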

[4] = biological target: Bile acid receptor (Homo sapiens) (UniProt Q96RI1); assay: qHTS assay for small molecule agonists of farnesoid X receptor signaling (AID 588527); conditions: HEK293T FXR-UAS-bla, beta-lactamase ratio, 16 h; stronger effect = higher value;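 note: 0% = vehicle basal and 100% = reference agonist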
Summary of the method: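 Agonist-mode beta-lactamase reporter in GeneBLAzer FXR-UAS-bla HEK293T cells, titration up to 92 uM, 16 h exposure at 37 C, CCF4 fluorescence. Response scaled to DMSO (0%) and 100 uM chenodeoxycholic acid (100%), then Hill-fitted for EC50 and efficacy.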

[5] = biological target: Glucocorticoid receptor (Homo sapiens) (UniProt P04150); assay: qHTS assay for small molecule agonists of glucocorticoid receptor signaling (AID 588532; active = well fitted curve in the direction sought with a large enough effect in the signal ratio, with a control signal flat; the % refers to the signal ratio;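 note: 100% = dexamethasone at 0.1 µM and 0% = DMSO only wells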); conditions: HeLa MMTV-bla, beta-lactamase ratio, agonist, 18 h; stronger effect = higher value; percent of dexamethasone control, DMSO zero
Summary of the method: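 Cells were plated and rested 3-5 h at 37 C, compounds were added in titration and incubated 18 h, then CCF4 substrate was loaded for 2 h at RT before reading blue/green fluorescence. EC50 came from Hill-equation fitting.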

[6] = biological target: Glucocorticoid receptor (Homo sapiens) (UniProt P04150); assay: qHTS assay for small molecule antagonists of glucocorticoid receptor signaling (AID 588533; active = well fitted inhibition curve with a large enough effect in the signal ratio, with a control signal flat, not every such curve was filed as active; the % refers to the signal ratio; note: % is set by controls: 0 for no effect and ±100 for the full control effect); conditions: HeLa MMTV-bla, GRE beta-lactamase ratio, antagonist mode, 18 h; at 76.8 µM (top of the series)
Summary of the method: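 Antagonist-mode qHTS: compound titrations added to GRE-bla HeLa cells, then dexamethasone 2 nM final; 18 h, 37 C. CCF4 FRET fluorescence normalized to dexamethasone and DMSO; IC50 from Hill fit.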

[7] = biological target: Peroxisome proliferator-activated receptor delta (Homo sapiens) (UniProt Q03181); assay: qHTS assay for small molecule agonists of peroxisome proliferator-activated receptor delta signaling (AID 588534); conditions: HEK293T PPARdelta-UAS-bla, beta-lactamase ratio, 18 h; at 76.7 µM (top of the series);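 note: 0% = DMSO basal wells and 100% = positive control agonist at 10 µM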
Summary of the method: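 Cells carrying a PPAR-delta beta-lactamase reporter were treated with compounds for 18 h at 37 °C in agonist mode. CCF4 fluorescence was read after 2 h; EC50 and efficacy from Hill fits.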

[8] = qHTS assay for small molecule antagonists of peroxisome proliferator-activated receptor delta signaling (AID 588535; active = well fitted inhibition curve with a large enough effect in the signal ratio, with a control signal flat, not every such curve was filed as active; the % refers to the signal ratio;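 for max response: cells co-treated with a PPAR-delta agonist as stimulator during compound exposure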); conditions: HEK293T PPARd-UAS-bla, beta-lactamase FRET ratio, 18 h; 460 nm channel
Summary of the method: (§1)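 Antagonist-mode beta-lactamase reporter (GeneBLAzer PPAR-delta-UAS-bla) in HEK293T cells, 2% charcoal/dextran FBS, 4000 cells/well. Compound titrations, 18 h at 37 C; CCF4 ratio read, IC50 and efficacy from Hill fits.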

[9] = biological target: Peroxisome proliferator-activated receptor delta (Homo sapiens) (UniProt Q03181); assay: as above; conditions: HEK293T PPARd-UAS-bla, beta-lactamase FRET ratio, 18 h; at 76.7 µM (top of the series)
Summary of the method: as §1

[10] = biological target: Peroxisome proliferator-activated receptor gamma (Homo sapiens) (UniProt P37231); assay: qHTS assay for small molecule agonists of peroxisome proliferator-activated receptor gamma signaling (AID 588536; active = well fitted curve in the direction sought with a large enough effect in the signal ratio, with a control signal flat, not every such curve was filed as active; the % refers to the signal ratio;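 note: 0% = DMSO basal wells and 100% = rosiglitazone at 2 µM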); conditions: HEK293 PPARg-UAS-bla, beta-lactamase ratio, 16 h, percent of rosiglitazone response, DMSO as zero; at 76.7 µM (top of the series)
Summary of the method: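 Ratiometric blue/green fluorescence (405 nm excitation; 460 and 530 nm emission) from CCF4-loaded HEK293 reporter cells serves as signal. Exposure to test compounds lasts 16 h at 37 C in medium containing 1% charcoal/dextran-treated serum.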

[11] = biological target: Peroxisome proliferator-activated receptor gamma (Homo sapiens) (UniProt P37231); assay: qHTS assay for small molecule antagonists of peroxisome proliferator-activated receptor gamma signaling (AID 588537; active = well fitted inhibition curve with a large enough effect in the signal ratio, with a control signal flat, not every such curve was filed as active; the % refers to the signal ratio;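 note: reporter cells co-stimulated with 50 nM rosiglitazone agonist during compound treatment; % of control where 0% means no effect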); conditions: HEK293 PPARg-UAS-bla, beta-lactamase ratio, antagonist mode; at 76.8 µM (top of the series)
Summary of the method: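 PPARγ-UAS-bla HEK293 cells (3000/well) in 1% charcoal/dextran-stripped FBS are treated with compound, then stimulated with 50 nM rosiglitazone for 16 h at 37 °C. Read-out is CCF4 β-lactamase fluorescence after 2 h at RT. IC50 comes from Hill fits normalised to rosiglitazone and DMSO.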

[12] = biological target: Vitamin D3 receptor (Homo sapiens) (UniProt P11473); assay: qHTS assay for small molecule antagonists of vitamin D receptor signaling (AID 588541); conditions: HEK293T VDR-UAS-bla, beta-lactamase ratio, antagonist mode; at 76.7 µM (top of the series);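 note: receptor activated by calcitriol during compound treatment; % is set by controls: 0 for no effect and ±100 for the full control effect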
Summary of the method: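 VDR-UAS-bla HEK293T cells in 2% charcoal-stripped FBS were stimulated with 1-alpha,25-dihydroxyvitamin D3 (3 nM final) plus compound for 16 h at 37 C. The beta-lactamase CCF4 readout was normalized to 50 nM agonist and DMSO, and Hill fits gave IC50.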

[13] = biological target: Vitamin D3 receptor (Homo sapiens) (UniProt P11473); assay: qHTS assay for small molecule agonists of vitamin D receptor signaling (AID 588543); conditions: HEK293T VDR-UAS-bla, beta-lactamase ratio, 16 h; at 76.8 µM (top of the series);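 note: 0% = DMSO basal and 100% = reference agonist control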
Summary of the method: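 Reporter cells (HEK293T, VDR-UAS-bla) were seeded in medium with 2% charcoal-stripped serum and incubated 5 h, then compounds in concentration series were added for 16 h at 37 °C. Stimulation was scaled between DMSO basal and 50 nM 1α,25-dihydroxyvitamin D3.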

[14] = qHTS assay for small molecule agonists of retinoid X receptor alpha signaling (AID 588544); conditions: HEK293T RXRa-UAS-bla, beta-lactamase reporter, 18 h; 530 nm emission;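 for activation: 0% = DMSO basal wells and 100% = reference agonist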
[15] = biological target: Retinoic acid receptor RXR-alpha (Homo sapiens) (UniProt P19793); assay: as above; conditions: HEK293T RXRa-UAS-bla, beta-lactamase reporter, 18 h; at 76.7 µM (top of the series)
[16] = biological target: Thyroid hormone receptor beta (Homo sapiens) (UniProt P10828); assay: qHTS assay for small molecule agonists of thyroid hormone receptor beta signaling (AID 588545); conditions: TR-UAS-bla GripTite HEK 293, beta-lactamase ratio, agonist mode, 18 h, percent of T3 response, DMSO as zero; at 76.7 µM (top of the series)
Summary of the method: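 Cells (2500/well) were seeded, incubated 4 hrs at 37 C, dosed with a compound series, incubated 18 hrs, loaded with CCF4 dye for 2 hrs at RT, then read for fluorescence. Data were scaled between DMSO (0%) and 10 nM T3 (100%).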

[17] = qHTS assay for small molecule antagonists of retinoid X receptor alpha signaling (AID 588546; active = well fitted inhibition curve with a large enough effect in the signal ratio, with a control signal flat, not every such curve was filed as active; the % refers to the signal ratio); conditions: HEK293T RXRa-UAS-bla, beta-lactamase ratio, antagonist mode; measured here: W530 green channel, cytotoxicity proxy
Summary of the method: (§2)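 Beta-lactamase reporter inhibition, read as CCF4 fluorescence ratio (ex 405, em 460/530 nm) after 2 h at RT. HEK293T UAS-bla cells, 2500/well, were stimulated with 9-cis-RA at 500 or 100 nM final alongside test compound for 18 h at 37 C.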

[18] = biological target: Retinoic acid receptor RXR-alpha (Homo sapiens) (UniProt P19793); assay: as above; conditions: HEK293T RXRa-UAS-bla, beta-lactamase ratio, antagonist mode
Summary of the method: as §2

[19] = biological target: Thyroid hormone receptor beta (Homo sapiens) (UniProt P10828); assay: qHTS assay for small molecule antagonists of thyroid hormone receptor beta signaling (AID 588547; active = well fitted inhibition curve with a large enough effect in the signal ratio, with a control signal flat, not every such curve was filed as active; the % refers to the signal ratio); conditions: TR-UAS-bla HEK293, beta-lactamase ratio, antagonist mode, 18 h
Summary of the method: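 TR-UAS-bla GripTite HEK293 cells in 2% charcoal/dextran FBS medium; compounds 0.59 nM to 92 uM with T3 at 0.4nM final, 18 h at 37 C. Beta-lactamase read by CCF4 fluorescence (460/530 nm); Hill fits gave IC50 and efficacy.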

[20] = biological target: Peroxisome proliferator-activated receptor alpha (Homo sapiens) (UniProt Q07869); assay: qHTS assay for small molecule agonists of the peroxisome proliferator-activated receptor alpha (PPARalpha) signaling pathway (AID 651778; active = well fitted curve in the direction sought with a large enough effect; an effect the other way counts as inactive or inconclusive; note: % of control where 0% means no effect); conditions: PathHunter PPARalpha complementation, chemiluminescence, 6 h; stronger effect = higher value
Summary of the method: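 Enzyme-fragment complementation assay in which ligand-bound PPARalpha translocates and forms an active enzyme that generates chemiluminescence. Cells were plated overnight, exposed to compound for 6 hr at 37 C, and then given detection reagent for 60 min at room temperature.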

[21] = qHTS assay for cell viability of the p53RE-bla HCT-116 cell line (AID 743292; active = well fitted curve in the direction sought with a large enough effect; an effect the other way counts as inactive or inconclusive; note: % is set by controls: 0 for no effect and ±100 for the full control effect; nearly all actives have a fitted effect of over 55% in size); conditions: p53RE-bla HCT-116 viability, ATP luminescence, 16 h; at 95 µM (top of the series)
Summary of the method: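 ATP-based luminescent viability (CellTiter-Glo, 30 min RT) after 16 h compound treatment at 37 C of p53RE-bla HCT-116 cells, seeded at 4,000 cells/well and rested 5 h before dosing.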

CCCCCCCC1CCC(=O)O1 (stereo unspecified)
-15.6%: max response [8]
-9.44%: max response [17]
-12.8%: max response [14]
inactive: activity, negative = inhibition [1] -2.09% | activation [2] 0.116% | activity change, negative = inhibition [3] -1.92% | activation [4] 2.91% | activation [5] 0.9% | activity change, negative = inhibition [6] -0.275% | activation [7] 3.67% | activity change, negative = inhibition [9] 17.2% | activation [10] -1.95% | activity, negative = inhibition [11] 2.75% | activity change, negative = inhibition [12] 3.03% | activation [13] 3.03% | activation [15] 0% | activation [16] -4.52% | max response [18] 1.06% | activity change % (negative = inhibition) [19] 10.8% | max response [20] -1.28% | activity change, negative = cytotoxicity [21] 0.0504%
